Laboratory results as given in patent US20050064533A1.
No constants are given. Whether binding was seen depends on the method and setting. In cells and extracts the contact can be indirect. Some entries that bind do so weakly or less than the wild type.

By UniProt entry, the sequences of proteins in these tests, tags left out. Where a name states a change or a piece, a line headed by the entry shows the natural chain unless it says otherwise. Chains listed by the source or under a name are the forms on record and can include a tag or linker. Residues count along the entry.
C-terminal 100 amino acids of mouse HIF-2a (775-874), wild type, with N-terminal thioredoxin/6-histidine tag (P97481, residues 775-874): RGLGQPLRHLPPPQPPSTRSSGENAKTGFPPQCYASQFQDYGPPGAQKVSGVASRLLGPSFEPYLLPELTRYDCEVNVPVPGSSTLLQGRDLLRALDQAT
C-terminal 100 amino acids of mouse HIF-2a (775-874), mutant N851A, with N-terminal thioredoxin/6-histidine tag (P97481, form named): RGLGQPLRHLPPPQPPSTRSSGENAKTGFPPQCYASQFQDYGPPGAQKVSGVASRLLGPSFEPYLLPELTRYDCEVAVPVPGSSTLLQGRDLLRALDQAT
UniProt Q9NWT6: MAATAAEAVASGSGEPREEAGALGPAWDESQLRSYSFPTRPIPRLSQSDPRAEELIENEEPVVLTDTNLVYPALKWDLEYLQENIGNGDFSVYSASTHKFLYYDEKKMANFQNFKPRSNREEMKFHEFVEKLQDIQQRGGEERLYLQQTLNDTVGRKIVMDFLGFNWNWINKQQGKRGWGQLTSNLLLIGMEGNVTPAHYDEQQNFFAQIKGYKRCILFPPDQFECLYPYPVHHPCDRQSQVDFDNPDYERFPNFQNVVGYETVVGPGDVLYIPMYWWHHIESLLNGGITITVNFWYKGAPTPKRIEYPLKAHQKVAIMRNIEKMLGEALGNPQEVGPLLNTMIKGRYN

Tests used:
[1] = target: C-terminal 100 amino acids of mouse HIF-2a (775-874), wild type, with N-terminal thioredoxin/6-histidine tag (mouse) (UniProt P97481); test: pulldown
[2] = target: C-terminal 100 amino acids of mouse HIF-2a (775-874), wild type, with N-terminal thioredoxin/6-histidine tag (mouse) (UniProt P97481); test: pulldown (FIG. 8)
[3] = target: C-terminal 100 amino acids of mouse HIF-2a (775-874), wild type, with N-terminal thioredoxin/6-histidine tag (mouse) (UniProt P97481); test: pulldown of 35S-labelled CAD on amylose resin with MBP-HNH, autoradiography
[4] = target: C-terminal 100 amino acids of mouse HIF-2a (775-874), mutant N851A, with N-terminal thioredoxin/6-histidine tag (mouse) (UniProt P97481); test: pulldown of 35S-labelled CAD N851A on amylose resin with MBP-HNH, autoradiography

Measured: binding

MBP (maltose binding protein) fused to wild type HIF Asparagine Hydroxylase (HNH) (from UniProt Q9NWT6 1-349) (enzyme)
binds: [1] | [2] | [3] | [4]
